These are yes or no findings as the source states them, for the method shown. In cells and extracts the contact can be indirect. Some entries that bind do so weakly or less than the wild type. Blank lines part the entries; values can stand above or below the substance they belong to.
What was measured:
[1] = target: endogenous UBE3A (human (endogenous in SW1353)) (UniProt Q05086); assay: co-IP; endogenous proteins in unsynchronized SW1353 human chondrocytes in the presence of MG132; IP with anti-UBE3A antibody, BMAL1 detected by blot
[2] = target: V5-BMAL1 (brain and muscle Arnt-like 1) (UniProt Q9WTL8); assay: co-IP; HEK 293T cells transfected with V5-BMAL1 and Myc-UBE3A; with or without E6/E7, with or without MG132 (5 μM); IP with anti-V5 antibody at 4°C overnight, Protein G Dynabeads, lysis buffer 150-mM NaCl, 20-mM Tris-HCl pH7.5, 10% glycerol, 1% Triton X-100; myc-UBE3A detected by blot
[3] = target: HA-UBE3A (ubiquitin protein ligase E3A) (UniProt Q05086); assay: co-IP; HEK 293T cells transfected with HA-UBE3A and V5-BMAL1, in the presence of E6/E7; IP with anti-HA antibody at 4°C overnight, Protein G Dynabeads, lysis buffer 150-mM NaCl, 20-mM Tris-HCl pH7.5, 10% glycerol, 1% Triton X-100; V5-BMAL1 detected by anti-V5 blot

The chains behind the UniProt entries cited, without tags or fusion partners. Where a name states a change or a piece, a line headed by the entry shows the natural chain unless it says otherwise.
UniProt Q05086: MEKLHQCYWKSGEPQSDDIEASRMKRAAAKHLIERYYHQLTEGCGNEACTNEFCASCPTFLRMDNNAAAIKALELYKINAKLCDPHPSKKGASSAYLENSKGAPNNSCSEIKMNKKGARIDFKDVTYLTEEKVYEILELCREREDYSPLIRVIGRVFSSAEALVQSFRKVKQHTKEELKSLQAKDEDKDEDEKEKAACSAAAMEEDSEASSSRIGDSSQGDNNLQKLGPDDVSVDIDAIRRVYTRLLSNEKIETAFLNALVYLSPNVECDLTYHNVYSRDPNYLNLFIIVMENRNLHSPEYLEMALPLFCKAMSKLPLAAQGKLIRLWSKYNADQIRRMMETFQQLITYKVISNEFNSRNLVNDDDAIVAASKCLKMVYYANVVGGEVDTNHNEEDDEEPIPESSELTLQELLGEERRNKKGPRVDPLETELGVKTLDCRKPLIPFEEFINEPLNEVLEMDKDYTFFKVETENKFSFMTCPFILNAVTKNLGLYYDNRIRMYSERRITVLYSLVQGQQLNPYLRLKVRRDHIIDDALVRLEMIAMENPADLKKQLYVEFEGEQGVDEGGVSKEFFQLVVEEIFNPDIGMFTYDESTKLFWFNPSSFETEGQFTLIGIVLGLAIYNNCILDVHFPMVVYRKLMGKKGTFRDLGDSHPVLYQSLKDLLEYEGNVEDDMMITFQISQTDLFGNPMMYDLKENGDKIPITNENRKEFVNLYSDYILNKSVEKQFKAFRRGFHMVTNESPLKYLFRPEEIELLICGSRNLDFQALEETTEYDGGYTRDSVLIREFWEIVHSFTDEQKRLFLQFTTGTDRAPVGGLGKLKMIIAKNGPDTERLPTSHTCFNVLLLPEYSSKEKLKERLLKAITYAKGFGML
UniProt Q9WTL8: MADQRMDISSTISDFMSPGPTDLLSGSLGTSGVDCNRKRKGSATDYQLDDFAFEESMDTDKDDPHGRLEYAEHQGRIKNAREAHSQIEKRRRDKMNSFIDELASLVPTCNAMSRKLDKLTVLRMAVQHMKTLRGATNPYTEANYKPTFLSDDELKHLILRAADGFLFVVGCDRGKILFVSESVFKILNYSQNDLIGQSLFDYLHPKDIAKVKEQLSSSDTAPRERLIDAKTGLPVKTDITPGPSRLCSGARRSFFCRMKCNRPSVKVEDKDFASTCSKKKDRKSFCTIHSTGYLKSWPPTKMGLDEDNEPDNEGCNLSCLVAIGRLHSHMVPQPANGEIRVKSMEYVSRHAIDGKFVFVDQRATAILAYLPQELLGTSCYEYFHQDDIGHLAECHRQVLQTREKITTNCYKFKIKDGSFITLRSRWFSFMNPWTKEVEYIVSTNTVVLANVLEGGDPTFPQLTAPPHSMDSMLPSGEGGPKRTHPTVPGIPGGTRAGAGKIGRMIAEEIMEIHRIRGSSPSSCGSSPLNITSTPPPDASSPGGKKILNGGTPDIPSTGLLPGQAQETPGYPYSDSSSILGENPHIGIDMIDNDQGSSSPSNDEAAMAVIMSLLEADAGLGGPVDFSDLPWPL
UniProt O00327: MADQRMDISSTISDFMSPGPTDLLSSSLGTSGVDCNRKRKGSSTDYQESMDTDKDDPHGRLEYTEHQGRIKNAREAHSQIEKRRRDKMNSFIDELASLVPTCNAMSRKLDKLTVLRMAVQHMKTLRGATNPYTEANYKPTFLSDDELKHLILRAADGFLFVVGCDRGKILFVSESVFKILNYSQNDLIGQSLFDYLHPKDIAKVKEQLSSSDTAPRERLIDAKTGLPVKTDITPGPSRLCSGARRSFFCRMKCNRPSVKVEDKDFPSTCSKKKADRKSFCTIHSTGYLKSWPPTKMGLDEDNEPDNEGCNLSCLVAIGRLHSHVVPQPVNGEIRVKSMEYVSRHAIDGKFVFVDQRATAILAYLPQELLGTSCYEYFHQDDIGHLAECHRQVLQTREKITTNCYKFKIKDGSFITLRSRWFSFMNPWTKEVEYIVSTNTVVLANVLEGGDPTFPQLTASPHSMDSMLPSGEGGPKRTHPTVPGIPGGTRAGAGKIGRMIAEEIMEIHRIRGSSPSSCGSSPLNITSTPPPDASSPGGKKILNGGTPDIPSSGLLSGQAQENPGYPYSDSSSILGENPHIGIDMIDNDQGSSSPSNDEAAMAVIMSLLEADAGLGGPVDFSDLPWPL

binding [1]: binds
Substance: endogenous BMAL1 (from UniProt O00327 1-626)

binding [2]: binds
Substance: Myc-UBE3A (ubiquitin protein ligase E3A) (from UniProt Q05086 1-875) (enzyme)

binding [3]: binds
Substance: V5-BMAL1 (brain and muscle Arnt-like 1) (from UniProt Q9WTL8 1-632)
